Data on 1 compound can be found in US20100330604A1, “QUANTIFICATION OF CHANGES IN THE DEGREES OF ORDER OF CELLULAR AND VIRAL MEMBRANES AND APPLICATIONS TO DIAGNOSIS, TREATMENT AND DRUG SCREENING” (priority 2007, published 2010).

The structures appear in SMILES notation.

In one experiment the test system is platelets. The conditions noted are these: after statin treatment, 4 patients; compared value 14.9+/-0.3; p=0.12, non significant.
For experiment [1] the following is noted: 6-week atorvastatin 40 mg, hyperlipidemic patients.

For `CC(C)c1c(C(=O)Nc2ccccc2)c(-c2ccccc2)c(-c2ccc(F)cc2)n1CC[C@@H](O)C[C@@H](O)CC(=O)O` [atorvastatin], the “530/30 nm band path of the di-4-ANEPPDHQ spectrum” value in the experiment with platelets was 16.1+/−0.3. For the same compound, the “total cholesterol, LDL, and triglyceride plasma levels” value in experiment [1] was “normalized”.
